Experiments:
NAFLD mice = assay: Therapeutic administration for 14 days in mice with established NAFLD; format: in vivo, mouse; settings: daily for 14 days; between the treatment groups
Description: Therapeutic ISM1 recombinant protein administration in vivo. All pharmacologic studies using recombinant ISM1 protein were performed in mice with established diet-induced obesity or non-alcoholic fatty liver disease (NAFLD). For all experiments, male C57BL/6J mice purchased from Jax were fed either a high-fat diet (#D12492, Research Diets) or a NAFLD diet (#D09100310, Research Diets) prior to ISM1 protein injections. In all experiments, mice were mock injected with saline for three days prior to protein or drug injections to prevent stress-induced weight loss. Mice were I.P. injected with vehicle (saline) or indicated doses of ISM1 protein diluted in saline. For the 14-day experiments in NAFLD mice, 7-weeks old mice were fed with NAFLD diet for 3 weeks and then mock injected with saline for 3 days prior to protein injections. The induction of lipid accumulation with NAFLD diet was verified by the significant increase in hepatic lipid levels compared with mice on chow diet at the same time point. NAFLD mice were then daily I.P. injected with either vehicle (saline containing 5% DMSO and 10% Kolliphor) or indicated doses of ISM1 protein (500 μg/kg or 5 mg/kg) or with FXR agonist (30 mg/kg, GW4064, Sigma-Aldrich, #G5172) diluted in vehicle (saline containing 5% DMSO and 10% Kolliphor). […] At the end of the experiments, mice and tissue weights were recorded. […]

DIO mice = assay: Therapeutic ISM1, Metformin or combined administration for 21 days in DIO mice; format: in vivo, mouse; settings: daily for 21 days; 5 mg/kg ISM1, 100 mg/kg Metformin or both
Description: Therapeutic ISM1 recombinant protein administration in vivo. All pharmacologic studies using recombinant ISM1 protein were performed in mice with established diet-induced obesity or non-alcoholic fatty liver disease (NAFLD). For all experiments, male C57BL/6J mice purchased from Jax were fed either a high-fat diet (#D12492, Research Diets) or a NAFLD diet (#D09100310, Research Diets) prior to ISM1 protein injections. In all experiments, mice were mock injected with saline for three days prior to protein or drug injections to prevent stress-induced weight loss. Mice were I.P. injected with vehicle (saline) or indicated doses of ISM1 protein diluted in saline. For the 14-day experiments in NAFLD mice, 7-weeks old mice were fed with NAFLD diet for 3 weeks and then mock injected with saline for 3 days prior to protein injections. The induction of lipid accumulation with NAFLD diet was verified by the significant increase in hepatic lipid levels compared with mice on chow diet at the same time point. NAFLD mice were then daily I.P. injected with either vehicle (saline containing 5% DMSO and 10% Kolliphor) or indicated doses of ISM1 protein (500 μg/kg or 5 mg/kg) or with FXR agonist (30 mg/kg, GW4064, Sigma-Aldrich, #G5172) diluted in vehicle (saline containing 5% DMSO and 10% Kolliphor). For the 21-day experiments in HFD mice, mice were mock injected with saline for three days prior to protein injections. Mice were then daily I.P. injected with either vehicle (saline) or 5 mg/kg of ISM1 protein diluted in saline. Metformin (100 mg/kg, Sigma, #317240) was diluted in saline and daily administered by oral gavage. All groups received control injections by I.P. and oral gavage. At the end of the experiments, mice and tissue weights were recorded. Tissues and plasma were collected and frozen for further analyses.
Glucose tolerance and insulin tolerance tests. For glucose tolerance tests, mice were fasted overnight and I.P. injected with glucose at 2 g/kg body weight. Blood glucose levels were measured at 0, 15, 30, 45, 60, 90 and 120 mins. For insulin tolerance tests, mice were fasted for 2 h, and I.P. injected with 0.75 U/kg insulin. Blood glucose levels were measured at 0, 15, 30, 45, 60, 90 and 120 mins.

Molecule	body weight (NAFLD mice)	body weights (DIO mice)	food intake (DIO mice)
CC(C)c1onc(-c2c(Cl)cccc2Cl)c1COc1ccc(/C=C/c2cccc(C(=O)O)c2)c(Cl)c1 [GW4064, reference compound]	no differences	–	–
CN(C)C(=N)N=C(N)N [Metformin, reference compound]	–	no difference	no difference
ISM1: recombinant mouse ISM1 protein with a C-terminal myc-his tag generated in mammalian HEK 293 Expi cells (protein, UniProt A2ATD1 30-454, looked up, C-terminal myc-His tag, recombinant mouse ISM1 protein with a C-terminal myc-his tag generated in mammalian HEK 293 Expi cells) Isthmin-1: SDRQDAAAGNNNLNLESDSTSETSFPLSKEAPEEHQVVHQPFPRQRFPPETGHPSLQRDGPRSFLLDLPNFPDLSKADINGQNPNIQVTIEVVDGPDSEAEKDQHPENKPSWSLPAPDWRAWWQRSLSLARTNSGDQDDKYDSTSDDSNFLSVPRGWDRPAPGHRTFETKEQPEYDSTDGEGDWSLWSVCSVTCGNGNQKRTRSCGYACIATESRTCDRPNCPGIEDTFRTAATEVSLLAGSEEFNATKLFEVDMDSCERWMSCKSEFLKKYMHKVINDLPSCPCSYPTEVAYSTADIFDRIKRKDFRWKDASGPKEKLEIYKPTARYCIRSMLSLESTTLAAQHCCYGDNMQLITRGKGAGTPNLISTEFSAELHYKVDVLPWIICKGDWSRYNEARPPNNGQKCTESPSDEDYIKQFQEAREY	no differences	no difference	no difference
